Measurements reported in PubChem BioAssay AID1259308 (NCATS, 2017)

Aim: 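Candidate targets for better recombinant protein yield in mammalian cells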 (primary screen)
Cells: human HEK293 embryonic kidney cells stably expressing firefly luciferase (HEK-CMV-Luc2-Hygro)
Reagents: single siRNA against human genes, 0.8 pmol siRNA per well
Time to read-out: 72 h
Detection: 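Reporter luminescence and viable-cell signal on separate replicate plates, given as percent of non-targeting control and median/MAD z-scores, plus per-cell luciferase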
Scale: total luciferase, z-score: higher = more reporter protein produced
Rule for the call: 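Active when the median/MAD z-score for overall luciferase is greater than 3; a gene was taken forward for validation with new siRNAs if at least two of its three siRNAs passed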
Meaning of the calls: active = raised luciferase; inactive = no rise
The deposit covers about 59,000 reagents; below is a random part of them. Over the whole deposit, about 1,510 (2.6%) are marked active. 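Calls use total luciferase alone and ignore viability, so some active siRNAs may act by altering cell number.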 Reagents against one gene are numbered here. Further read-outs or replicates are left out here.

SNRPD1 #1
- total luciferase, z-score: 2.55
- Outcome: inactive

SNRPD1 #2
- total luciferase, z-score: 0.232
- Outcome: inactive

SNRPD1 #3
- total luciferase, z-score: 1.45
- Outcome: inactive

SYT4 #1
- total luciferase, z-score: 0.037
- Outcome: inactive

SYT4 #2
- total luciferase, z-score: 2.25
- Outcome: inactive

SYT4 #3
- total luciferase, z-score: -0.973
- Outcome: inactive

PAX2 #1
- total luciferase, z-score: 0.794
- Outcome: inactive

PAX2 #2
- total luciferase, z-score: -1.92
- Outcome: inactive

PAX2 #3
- total luciferase, z-score: -1.47
- Outcome: inactive

PDE4B #1
- total luciferase, z-score: 0.502
- Outcome: inactive

PDE4B #2
- total luciferase, z-score: 1.68
- Outcome: inactive

PDE4B #3
- total luciferase, z-score: -0.647
- Outcome: inactive

GVINP1 #1
- total luciferase, z-score: 1.41
- Outcome: inactive

GVINP1 #2
- total luciferase, z-score: 1.65
- Outcome: inactive

GVINP1 #3
- total luciferase, z-score: 0.176
- Outcome: inactive

DHRS3 #1
- total luciferase, z-score: 1.23
- Outcome: inactive

DHRS3 #2
- total luciferase, z-score: -1.45
- Outcome: inactive

DHRS3 #3
- total luciferase, z-score: -0.586
- Outcome: inactive

PHGR1 #1
- total luciferase, z-score: -0.725
- Outcome: inactive

PHGR1 #2
- total luciferase, z-score: 0.813
- Outcome: inactive

PHGR1 #3
- total luciferase, z-score: 0.733
- Outcome: inactive

H3C1 #1
- total luciferase, z-score: 0.735
- Outcome: inactive

H3C1 #2
- total luciferase, z-score: -0.897
- Outcome: inactive

H3C1 #3
- total luciferase, z-score: 0.122
- Outcome: inactive

NBPF15 #1
- total luciferase, z-score: -1.2
- Outcome: inactive

NBPF15 #2
- total luciferase, z-score: 2.14
- Outcome: inactive

NBPF15 #3
- total luciferase, z-score: 0.699
- Outcome: inactive

AKAP4 #1
- total luciferase, z-score: 0.092
- Outcome: inactive

AKAP4 #2
- total luciferase, z-score: -0.383
- Outcome: inactive

AKAP4 #3
- total luciferase, z-score: -0.871
- Outcome: inactive

ATP23 #1
- total luciferase, z-score: 0.459
- Outcome: inactive

ATP23 #2
- total luciferase, z-score: 1.81
- Outcome: inactive

ATP23 #3
- total luciferase, z-score: 0.194
- Outcome: inactive

As entered above.
Result of SYT4 #3 in “total luciferase, z-score”: -0.973
Under “Outcome”, ATP23 #3 shows inactive
